This assay concerns the target HSF1 (human (endogenous in HUVECs)) (UniProt Q00613). The experiment in a line: co-IP; nuclear extracts and cytosol of HUVECs (Ctrl, PE, PE + TMZ, PE + TMZ + Akt inhibitor AZD5363); pre-cleared lysate with primary antibody at 4 °C overnight, protein A/G agarose beads; blots for HSF1, Akt and p-Akt.

Protein sequences, listed by entry. Tags and fused reporters are not part of them.
UniProt Q00613: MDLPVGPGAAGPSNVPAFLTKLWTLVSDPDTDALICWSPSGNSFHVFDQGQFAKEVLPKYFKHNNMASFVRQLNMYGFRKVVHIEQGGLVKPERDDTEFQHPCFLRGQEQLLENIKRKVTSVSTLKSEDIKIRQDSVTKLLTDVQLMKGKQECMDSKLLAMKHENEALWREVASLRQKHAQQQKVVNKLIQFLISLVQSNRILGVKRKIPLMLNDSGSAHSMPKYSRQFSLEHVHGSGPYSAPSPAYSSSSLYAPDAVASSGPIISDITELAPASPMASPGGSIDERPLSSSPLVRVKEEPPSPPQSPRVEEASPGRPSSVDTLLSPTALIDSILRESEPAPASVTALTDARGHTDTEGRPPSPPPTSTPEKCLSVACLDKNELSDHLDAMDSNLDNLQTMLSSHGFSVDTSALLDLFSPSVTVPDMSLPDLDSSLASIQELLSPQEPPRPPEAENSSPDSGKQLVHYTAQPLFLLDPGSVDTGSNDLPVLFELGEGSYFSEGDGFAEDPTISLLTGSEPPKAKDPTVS
UniProt P31749: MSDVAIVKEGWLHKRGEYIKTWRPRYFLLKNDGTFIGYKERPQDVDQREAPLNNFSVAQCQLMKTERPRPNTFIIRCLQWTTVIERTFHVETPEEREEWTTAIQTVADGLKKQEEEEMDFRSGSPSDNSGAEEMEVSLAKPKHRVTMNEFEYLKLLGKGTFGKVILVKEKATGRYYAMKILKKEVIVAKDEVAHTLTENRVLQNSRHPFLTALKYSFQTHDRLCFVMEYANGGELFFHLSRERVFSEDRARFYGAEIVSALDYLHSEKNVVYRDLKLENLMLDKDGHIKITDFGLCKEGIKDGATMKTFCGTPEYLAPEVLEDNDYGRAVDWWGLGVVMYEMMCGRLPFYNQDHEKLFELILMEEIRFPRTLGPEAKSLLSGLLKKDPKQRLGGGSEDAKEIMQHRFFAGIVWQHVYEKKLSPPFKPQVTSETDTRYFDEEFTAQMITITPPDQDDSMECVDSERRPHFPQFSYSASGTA

These results are taken from article PMC9525722.

These are yes or no findings as the source states them, for the method shown. Binding seen in cells or lysates may run through a third protein. Some results given as binding are weak or reduced against the parent protein; the word gives no strength.

Turning to Akt (from UniProt P31749 1-480), the binding result was “binds”. For p-Akt (from UniProt P31749 1-480), the binding result was “binds”.
